PMC10126118
No constants are given. Whether binding was seen depends on the method and setting. Binding seen in cells or lysates may run through a third protein. Some binding calls cover weakened binding; strength is not graded here. For some assays here: Sequences can lack the tags named with a protein.

Chains of the proteins cited; added tags and fusions are not shown. Residues count along the entry.
UniProt P21860, residues 20-1342: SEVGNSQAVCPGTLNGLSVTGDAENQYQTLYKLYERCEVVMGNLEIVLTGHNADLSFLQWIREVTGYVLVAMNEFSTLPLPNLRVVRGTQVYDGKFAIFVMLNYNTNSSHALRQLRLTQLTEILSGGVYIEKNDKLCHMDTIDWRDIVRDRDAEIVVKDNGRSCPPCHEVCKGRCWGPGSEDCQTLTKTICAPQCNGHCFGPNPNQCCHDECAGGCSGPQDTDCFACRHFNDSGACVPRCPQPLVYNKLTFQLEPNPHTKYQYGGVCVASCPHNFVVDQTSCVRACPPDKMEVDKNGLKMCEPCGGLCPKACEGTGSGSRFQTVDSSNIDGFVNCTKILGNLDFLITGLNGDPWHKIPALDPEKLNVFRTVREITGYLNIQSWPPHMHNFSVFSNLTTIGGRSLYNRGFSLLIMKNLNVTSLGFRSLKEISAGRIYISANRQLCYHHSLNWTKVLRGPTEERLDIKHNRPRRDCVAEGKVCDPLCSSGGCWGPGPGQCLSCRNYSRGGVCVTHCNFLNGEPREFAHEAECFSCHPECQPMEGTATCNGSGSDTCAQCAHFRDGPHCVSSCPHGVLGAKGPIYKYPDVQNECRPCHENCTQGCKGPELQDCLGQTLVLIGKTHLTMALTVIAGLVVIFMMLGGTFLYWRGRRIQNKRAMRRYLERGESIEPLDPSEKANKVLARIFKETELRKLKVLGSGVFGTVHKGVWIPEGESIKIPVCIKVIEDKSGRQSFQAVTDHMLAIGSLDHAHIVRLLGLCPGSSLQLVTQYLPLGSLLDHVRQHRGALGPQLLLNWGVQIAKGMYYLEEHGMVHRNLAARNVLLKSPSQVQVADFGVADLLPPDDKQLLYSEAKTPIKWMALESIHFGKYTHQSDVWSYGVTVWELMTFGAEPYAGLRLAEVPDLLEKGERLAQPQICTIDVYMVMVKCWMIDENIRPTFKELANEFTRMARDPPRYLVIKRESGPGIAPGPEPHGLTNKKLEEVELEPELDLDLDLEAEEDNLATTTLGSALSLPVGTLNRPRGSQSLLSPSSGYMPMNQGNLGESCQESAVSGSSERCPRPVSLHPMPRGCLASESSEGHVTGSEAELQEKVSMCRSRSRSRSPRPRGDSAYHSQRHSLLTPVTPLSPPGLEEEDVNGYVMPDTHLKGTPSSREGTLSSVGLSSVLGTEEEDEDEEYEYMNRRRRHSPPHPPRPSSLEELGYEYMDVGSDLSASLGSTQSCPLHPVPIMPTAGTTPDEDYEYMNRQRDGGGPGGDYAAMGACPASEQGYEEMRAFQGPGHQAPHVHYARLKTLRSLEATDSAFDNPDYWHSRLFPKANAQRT
UniProt Q15303, residues 26-1308: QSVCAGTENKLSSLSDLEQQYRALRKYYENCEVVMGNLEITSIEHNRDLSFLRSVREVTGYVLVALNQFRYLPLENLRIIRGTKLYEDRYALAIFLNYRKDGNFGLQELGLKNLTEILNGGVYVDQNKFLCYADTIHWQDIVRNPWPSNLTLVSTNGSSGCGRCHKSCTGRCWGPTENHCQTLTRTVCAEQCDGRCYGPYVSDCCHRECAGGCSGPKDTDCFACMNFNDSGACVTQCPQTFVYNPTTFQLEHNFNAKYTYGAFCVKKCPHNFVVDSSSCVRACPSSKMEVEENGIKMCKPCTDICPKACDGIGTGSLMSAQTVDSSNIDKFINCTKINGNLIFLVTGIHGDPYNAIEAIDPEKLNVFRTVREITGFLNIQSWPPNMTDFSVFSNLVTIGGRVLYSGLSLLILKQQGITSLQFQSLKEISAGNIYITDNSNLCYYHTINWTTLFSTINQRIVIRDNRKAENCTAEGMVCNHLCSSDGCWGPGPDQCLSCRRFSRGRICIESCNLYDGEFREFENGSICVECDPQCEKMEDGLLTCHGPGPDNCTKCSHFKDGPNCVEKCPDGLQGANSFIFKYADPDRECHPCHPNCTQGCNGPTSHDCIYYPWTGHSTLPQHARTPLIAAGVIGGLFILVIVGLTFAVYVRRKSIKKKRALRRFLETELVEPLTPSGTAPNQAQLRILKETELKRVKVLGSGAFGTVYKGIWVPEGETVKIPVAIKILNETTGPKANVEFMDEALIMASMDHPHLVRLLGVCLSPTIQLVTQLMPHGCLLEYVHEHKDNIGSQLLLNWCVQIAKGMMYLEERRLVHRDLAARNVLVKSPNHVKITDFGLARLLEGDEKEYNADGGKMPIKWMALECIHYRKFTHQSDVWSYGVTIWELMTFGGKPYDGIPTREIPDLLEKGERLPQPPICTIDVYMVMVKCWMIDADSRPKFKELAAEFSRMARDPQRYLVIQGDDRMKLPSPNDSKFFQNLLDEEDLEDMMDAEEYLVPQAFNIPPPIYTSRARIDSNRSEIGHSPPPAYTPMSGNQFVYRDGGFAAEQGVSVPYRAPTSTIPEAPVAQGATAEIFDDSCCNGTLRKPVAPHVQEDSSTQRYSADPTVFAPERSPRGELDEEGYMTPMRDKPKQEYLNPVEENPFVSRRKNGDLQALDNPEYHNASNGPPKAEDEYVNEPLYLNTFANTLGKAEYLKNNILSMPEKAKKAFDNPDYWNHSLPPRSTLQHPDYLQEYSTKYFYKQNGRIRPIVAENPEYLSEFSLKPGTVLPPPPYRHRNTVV

Experiments:
[1] = target: T1, C-terminal Flag-tagged TMEM25 (human) (UniProt Q86YD3); assay: co-IP; HEK293T cells transfected with tagged constructs; anti-Flag IP followed by immunoblotting; TNTE 0.5% Triton X-100 lysis buffer
T1 sequence: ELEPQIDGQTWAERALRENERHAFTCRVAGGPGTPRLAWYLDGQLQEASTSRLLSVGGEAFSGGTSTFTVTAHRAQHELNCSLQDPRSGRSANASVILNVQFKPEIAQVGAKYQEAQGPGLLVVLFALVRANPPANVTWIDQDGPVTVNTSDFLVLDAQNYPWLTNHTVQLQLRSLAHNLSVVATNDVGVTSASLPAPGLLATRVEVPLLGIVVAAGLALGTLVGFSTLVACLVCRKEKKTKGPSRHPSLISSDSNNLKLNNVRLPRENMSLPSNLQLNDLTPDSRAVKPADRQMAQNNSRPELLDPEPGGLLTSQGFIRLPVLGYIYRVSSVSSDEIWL

[2] = target: T2, TMEM25, endogenous in MDA-MB-231 cells (human (endogenous in MDA-MB-231)) (UniProt Q86YD3); assay: co-IP; endogenous proteins, MDA-MB-231 cell lysates (TNTE 0.5% Triton X-100 lysis buffer, protein G agarose, 4 °C, 3 h); anti-TMEM25 IP or anti-EGFR IP; wild-type or TMEM25 knockout cells for EGFR with STAT3
T2 sequence: T1 sequence

binding [2] | Substance | binding [1]
 | C-terminal hemagglutinin (HA)-tagged EGFR (from UniProt P00533 25-1210) (receptor) | binds
 | C-terminal hemagglutinin (HA)-tagged HER2 (from UniProt P04626 23-1255) (receptor) | no binding
 | C-terminal hemagglutinin (HA)-tagged HER3 (from UniProt P21860 20-1342) (receptor) | no binding
 | C-terminal hemagglutinin (HA)-tagged HER4 (from UniProt Q15303 26-1308) (receptor) | no binding
binds | EGFR, endogenous in MDA-MB-231 cells (from UniProt P00533 25-1210) (receptor) | 
